# Measured values from the supplement of paper PMC8728848.
# Some of the results follow.
# B1: Sp8391B-bot-388-20-388 (Bacteroides ovatus) (protein)
# chain: GCQNNDENEQHYDNKLFISASNFTKEILFKAGDTNVETGLSVAIAKPEEHDIKVTMSPAPELLSTYKLAYYDETAVLLSEEHYSMPETSTTIKSGSIVSPELPIEFINTGELDIKTTYVLPVTIKSVEGIGVLQSAKTYYYVFRGASLINVVCNISRNRAYPDFKNDSKFNNLTENTMEILFKANSFPNTLNTLMGIESNYLLRIGDATIPNNQLQVATSVNNCTSADLQLESGKWYHVAVAFNKGNVKVYINGVEKLSGSTGKSSVSLGAKHTNEEDGSRCFWVGYSYKDDRYFDGVVSEVRIWNRALTAEEIQATNHFYTIEPESEGLIAYWKFDEGSGTVAKDYSVSGYDLTIEKEPKWESVSLPQ
# How the values were obtained:
# Experiment in all cases: glycan array binding signal (z-score within array); higher = stronger binding
# Conditions in all cases: glycan notation: IUPAC condensed, linker removed
# Gal6S(b1-4)Glc6S = target: Gal6S(b1-4)Glc6S
# In short: (§1)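 From the Consortium for Functional Glycomics database, 3228 arrays were curated, keeping only those whose protein sequence was available. Binding is given as a within-array Z-score averaged across arrays sharing a protein sequence and across linkers. Negative Z-scores can be read as non-binding.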
# Gal6S(b1-4)GlcNAc = target: Gal6S(b1-4)GlcNAc
# In short: as §1
# Gal6S(b1-4)GlcNAc6S = target: Gal6S(b1-4)GlcNAc6S
# In short: as §1
# GalNAc(a1-3)Gal = target: GalNAc(a1-3)Gal
# In short: as §1
# GalNAc(a1-3)GalNAc = target: GalNAc(a1-3)GalNAc
# In short: as §1
# [1] = target: GalNAc(a1-3)GalNAc(b1-3)Gal(a1-4)Gal(b1-4)Glc
# In short: as §1
# [2] = target: GalNAc(a1-3)GalNAc(b1-3)Gal(a1-4)Gal(b1-4)GlcNAc
# In short: as §1
# GalNAc(b1-3)Gal = target: GalNAc(b1-3)Gal
# In short: as §1
# [3] = target: GalNAc(b1-3)Gal(a1-4)Gal(b1-4)GlcNAc
# In short: as §1
# [4] = target: GalNAc(b1-3)Gal(a1-4)Gal(b1-4)GlcNAc(b1-3)Gal(b1-4)Glc
# In short: as §1
# [5] = target: GalNAc(b1-3)Gal(a1-6)Gal(b1-4)Glc
# In short: as §1
# GalNAc(b1-3)GalNAc = target: GalNAc(b1-3)GalNAc
# In short: as §1
# GalNAc(b1-3)GlcNAc = target: GalNAc(b1-3)GlcNAc
# In short: as §1
# GalNAc(b1-4)Gal(b1-4)Glc = target: GalNAc(b1-4)Gal(b1-4)Glc
# In short: as §1
# GalNAc(b1-4)GlcNAc = target: GalNAc(b1-4)GlcNAc
# In short: as §1
# [6] = target: GalNAc(b1-4)GlcNAc(b1-2)Man
# In short: as §1
# [7] = target: GalNAc(b1-4)GlcNAc(b1-2)Man(a1-3)[GalNAc(b1-4)GlcNAc(b1-2)Man(a1-6)]Man(b1-4)GlcNAc(b1-4)GlcNAc
# In short: as §1
# [8] = target: GalNAc(b1-4)GlcNAc(b1-3)GalNAc(b1-4)GlcNAc
# In short: as §1
# GalNAc(b1-4)GlcNAc6S = target: GalNAc(b1-4)GlcNAc6S
# In short: as §1
# GalNAc(b1-6)GalNAc = target: GalNAc(b1-6)GalNAc
# In short: as §1
# GalNAc3S(b1-4)GlcNAc = target: GalNAc3S(b1-4)GlcNAc
# In short: as §1
# GalNAc3S(b1-4)GlcNAc3S = target: GalNAc3S(b1-4)GlcNAc3S
# In short: as §1
# [9] = target: GalNAc3S(b1-4)[Fuc(a1-3)]GlcNAc
# In short: as §1
# GalNAc4S6S(b1-4)GlcNAc = target: GalNAc4S6S(b1-4)GlcNAc
# In short: as §1
# GalNAc6S(b1-4)GlcNAc = target: GalNAc6S(b1-4)GlcNAc
# In short: as §1
# Glc(a1-4)Glc = target: Glc(a1-4)Glc
# In short: as §1
# [10] = target: Glc(a1-4)Glc(a1-4)Glc(a1-4)Glc
# In short: as §1
# Glc(a1-6)Glc(a1-6)Glc = target: Glc(a1-6)Glc(a1-6)Glc
# In short: as §1
# [11] = target: Glc(a1-6)Glc(a1-6)Glc(a1-6)Glc
# In short: as §1
# Glc(b1-4)Glc = target: Glc(b1-4)Glc
# In short: as §1
# Glc(b1-6)Glc = target: Glc(b1-6)Glc
# In short: as §1
# GlcA(b1-3)Gal = target: GlcA(b1-3)Gal
# In short: as §1
# GlcA(b1-3)GlcNAc = target: GlcA(b1-3)GlcNAc
# In short: as §1
# GlcA(b1-6)Gal = target: GlcA(b1-6)Gal
# In short: as §1
# [12] = target: GlcA3S(b1-3)Gal(b1-4)GlcNAc(b1-2)Man
# In short: as §1
# [13] = target: GlcA3S(b1-3)Gal(b1-4)GlcNAc(b1-3)Gal(b1-4)Glc
# In short: as §1
# [14] = target: GlcNAc(a1-3)Gal(b1-4)GlcNAc
# In short: as §1
# [15] = target: GlcNAc(a1-4)Gal(b1-3)GlcNAc
# In short: as §1
# [16] = target: GlcNAc(a1-4)Gal(b1-4)GalNAc
# In short: as §1
# [17] = target: GlcNAc(a1-4)Gal(b1-4)GlcNAc
# In short: as §1
# [18] = target: GlcNAc(a1-4)Gal(b1-4)GlcNAc(b1-3)Gal(b1-4)Glc
# In short: as §1
# [19] = target: GlcNAc(a1-4)Gal(b1-4)GlcNAc(b1-3)Gal(b1-4)GlcNAc
# In short: as §1
# [20] = target: GlcNAc(a1-4)Gal(b1-4)GlcNAc(b1-3)Gal(b1-4)GlcNAc(b1-3)Gal(b1-4)GlcNAc
# In short: as §1
# [21] = target: GlcNAc(a1-4)Gal(b1-4)GlcNAc(b1-3)Gal(b1-4)[Fuc(a1-3)]GlcNAc(b1-3)Gal(b1-4)[Fuc(a1-3)]GlcNAc
# In short: as §1
# [22] = target: GlcNAc(a1-6)Gal(b1-4)GlcNAc
# In short: as §1
binder,measurement,setting,value
B1,glycan array binding signal (z-score),Gal6S(b1-4)Glc6S,-0.063
same,glycan array binding signal (z-score),Gal6S(b1-4)GlcNAc,-0.679
same,glycan array binding signal (z-score),Gal6S(b1-4)GlcNAc6S,-0.591
same,glycan array binding signal (z-score),GalNAc(a1-3)Gal,-0.131
same,glycan array binding signal (z-score),GalNAc(a1-3)GalNAc,-0.295
same,glycan array binding signal (z-score),[1],-1.01
same,glycan array binding signal (z-score),[2],1.69
same,glycan array binding signal (z-score),GalNAc(b1-3)Gal,-0.079
same,glycan array binding signal (z-score),[3],-0.265
same,glycan array binding signal (z-score),[4],0.152
same,glycan array binding signal (z-score),[5],-0.567
same,glycan array binding signal (z-score),GalNAc(b1-3)GalNAc,0.041
same,glycan array binding signal (z-score),GalNAc(b1-3)GlcNAc,0.354
same,glycan array binding signal (z-score),GalNAc(b1-4)Gal(b1-4)Glc,0.821
same,glycan array binding signal (z-score),GalNAc(b1-4)GlcNAc,-0.79
same,glycan array binding signal (z-score),[6],-0.586
same,glycan array binding signal (z-score),[7],1.65
same,glycan array binding signal (z-score),[8],0.716
same,glycan array binding signal (z-score),GalNAc(b1-4)GlcNAc6S,-1.03
same,glycan array binding signal (z-score),GalNAc(b1-6)GalNAc,0.407
same,glycan array binding signal (z-score),GalNAc3S(b1-4)GlcNAc,-0.773
same,glycan array binding signal (z-score),GalNAc3S(b1-4)GlcNAc3S,-0.067
same,glycan array binding signal (z-score),[9],-0.266
same,glycan array binding signal (z-score),GalNAc4S6S(b1-4)GlcNAc,-0.043
same,glycan array binding signal (z-score),GalNAc6S(b1-4)GlcNAc,-1.27
same,glycan array binding signal (z-score),Glc(a1-4)Glc,0.181
same,glycan array binding signal (z-score),[10],-0.549
same,glycan array binding signal (z-score),Glc(a1-6)Glc(a1-6)Glc,-0.584
same,glycan array binding signal (z-score),[11],-0.611
same,glycan array binding signal (z-score),Glc(b1-4)Glc,-0.009
same,glycan array binding signal (z-score),Glc(b1-6)Glc,0.413
same,glycan array binding signal (z-score),GlcA(b1-3)Gal,-0.821
same,glycan array binding signal (z-score),GlcA(b1-3)GlcNAc,-0.475
same,glycan array binding signal (z-score),GlcA(b1-6)Gal,2.12
same,glycan array binding signal (z-score),[12],-0.231
same,glycan array binding signal (z-score),[13],-1.22
same,glycan array binding signal (z-score),[14],-0.591
same,glycan array binding signal (z-score),[15],-0.29
same,glycan array binding signal (z-score),[16],0.025
same,glycan array binding signal (z-score),[17],-0.144
same,glycan array binding signal (z-score),[18],-0.143
same,glycan array binding signal (z-score),[19],-0.925
same,glycan array binding signal (z-score),[20],-0.76
same,glycan array binding signal (z-score),[21],0.692
same,glycan array binding signal (z-score),[22],-0.266

# Part of the list above, with tabs:
binder	measurement	setting	value
B1	glycan array binding signal (z-score)	[2]	1.69
same	glycan array binding signal (z-score)	[19]	-0.925
